Source: PubChem BioAssay AID1224826 (NIAID, 2016)
This is a random part of about 17,000 reagents tested. About 1,110 of all reagents (6.6%) were called active. 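Active means lowered or raised reporter signal; replicate intensities are raw and not normalised per plate.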 A reagent listed more than once was tested more than once; the source does not tell the runs apart. Not all columns of the deposit are shown.

Purpose: 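Genes that change LPS-induced Tnf promoter activity in mouse macrophages when knocked down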 (primary screen)
System: RAW264.7 G9 macrophages from mouse bearing reporters for p65 (GFP) and the Tnf promoter (mCherry)
Knock-down reagent: siRNA pool against mouse genes, 100 nM
Duration: 16 h of LPS stimulation, after 2 days of siRNA transfection
Challenge: bacterial lipopolysaccharide (Salmonella minnesota R595), 10 ng/ml
Read-out: 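Nuclear mCherry signal of the Tnf promoter reporter measured by imaging after background removal, scaled to each plate median and turned into robust z-scores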
Scale: Tnf reporter robust z-score: higher = stronger Tnf promoter reporter signal after LPS
Active means: 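Called active when robust z-score is at most -1.3, matching the median of the Tlr4 knock-down control, or over 3; control wells and wells with under 50 cells never active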
Meaning of the calls: active = Tnf reporter clearly lowered or raised; inactive = no clear change in Tnf reporter

Gene	Tnf reporter robust z-score	fewer than 50 cells in well	call
Ssmem1 (GeneID 75647)	-0.42	enough cells in well	inactive
Actc1 (GeneID 11464)	0.74	enough cells in well	inactive
Sprr1b (GeneID 20754)	0.59	enough cells in well	inactive
Or13d1 (GeneID 258600)	1.17	enough cells in well	inactive
Spata33 (GeneID 320869)	0.71	enough cells in well	inactive
Fabp5 (GeneID 16592)	0.48	enough cells in well	inactive
BC030500 (GeneID 234290)	-0.14	enough cells in well	inactive
Trmt10c (GeneID 52575)	3.42	enough cells in well	active
Hars1 (GeneID 15115)	-0.53	enough cells in well	inactive
Amelx (GeneID 11704)	1.13	enough cells in well	inactive
Sh2d4b (GeneID 328381)	0.74	enough cells in well	inactive
Rnf214 (GeneID 235315)	-0.84	enough cells in well	inactive
Rps18 (GeneID 20084)		fewer than 50 cells per well; well left out of calls	inactive
Pck1 (GeneID 18534)	1.53	enough cells in well	inactive
Tox4 (GeneID 268741)	-1.31	enough cells in well	active
Vtn (GeneID 22370)	-0.46	enough cells in well	inactive
Fundc1 (GeneID 72018)	2.09	enough cells in well	inactive
Mbd3l2 (GeneID 234988)	0.52	enough cells in well	inactive
Ffar2 (GeneID 233079)	-0.26	enough cells in well	inactive
Vmn1r227 (GeneID 171229)	-1.2	enough cells in well	inactive
A130004G07Rik (retired record) (GeneID 320687)	-0.58	enough cells in well	inactive
H3c15 (GeneID 97114)	-0.38	enough cells in well	inactive
Rab40c (GeneID 224624)	-0.5	enough cells in well	inactive
Elmo2 (GeneID 140579)	1.34	enough cells in well	inactive
Clca3a1 (GeneID 12722)	1.22	enough cells in well	inactive
Gdf2 (GeneID 12165)	0.43	enough cells in well	inactive
Qtrt1 (GeneID 60507)	1	enough cells in well	inactive
Cxcr5 (GeneID 12145)	0.87	enough cells in well	inactive
Rps6ka2 (GeneID 20112)	1.94	enough cells in well	inactive
Adcy9 (GeneID 11515)	-0.91	enough cells in well	inactive
Rnf115 (GeneID 67845)	-1.41	enough cells in well	active
Fam174a (GeneID 67698)	0.31	enough cells in well	inactive
Max (GeneID 17187)	1.09	enough cells in well	inactive
Aldh3a2 (GeneID 11671)	-0.17	enough cells in well	inactive
Rgs7 (GeneID 24012)	0.55	enough cells in well	inactive
Rgs7 (GeneID 24012)	0.18	enough cells in well	inactive
Rpap3 (GeneID 71919)		fewer than 50 cells per well; well left out of calls	inactive
Mettl16 (GeneID 67493)	-0.1	enough cells in well	inactive
Ocstamp (GeneID 74614)	0.84	enough cells in well	inactive
Alyref (GeneID 21681)	-1.79	enough cells in well	active
Tnn (GeneID 329278)	-0.6	enough cells in well	inactive
Tob1 (GeneID 22057)	-0.79	enough cells in well	inactive
Nemp1 (GeneID 210035)	-0.84	enough cells in well	inactive
Zfp185 (GeneID 22673)	2.03	enough cells in well	inactive
Ebf2 (GeneID 13592)	1.53	enough cells in well	inactive
Idh3a (GeneID 67834)	0.83	enough cells in well	inactive
Efcab6 (GeneID 77627)		fewer than 50 cells per well; well left out of calls	inactive
Hcar1 (GeneID 243270)	-0.97	enough cells in well	inactive
Gstt2 (GeneID 14872)	0.68	enough cells in well	inactive
G3bp2 (GeneID 23881)	1.65	enough cells in well	inactive
Or5k1 (GeneID 259002)	0.06	enough cells in well	inactive
Hnrnpa2b1 (GeneID 53379)	-0.27	enough cells in well	inactive
Spata6l (GeneID 381218)	-0.25	enough cells in well	inactive
Stk32c (GeneID 57740)		fewer than 50 cells per well; well left out of calls	inactive
Ube2z (GeneID 268470)	0.54	enough cells in well	inactive
Mmp25 (GeneID 240047)	-0.37	enough cells in well	inactive
Nudt12 (GeneID 67993)	0.31	enough cells in well	inactive
Ammecr1 (GeneID 56068)	-0.99	enough cells in well	inactive

Reagents listed above marked active, once more:
Gene	Tnf reporter robust z-score	fewer than 50 cells in well	call
Trmt10c (GeneID 52575)	3.42	enough cells in well	active
Tox4 (GeneID 268741)	-1.31	enough cells in well	active
Rnf115 (GeneID 67845)	-1.41	enough cells in well	active
Alyref (GeneID 21681)	-1.79	enough cells in well	active
